Results are given in words; binding and its absence hold for the method and conditions named. Binding seen in cells or lysates may run through a third protein. Here binding means that the protein was enriched with, or labelled near, the bait; the list need not be complete.
Molecular target: recombinant His-tagged progranulin (UniProt P28799)
Experiment: affinity purification with mass spectrometry; 10 mg NP-40 lysate of serum-starved 5637 cells (stimulated with 40 nM progranulin for 5 min), precleared with Ni-NTA-agarose, incubated with or without 7 ug recombinant His-tagged progranulin overnight at 4°C, then Ni-NTA-agarose beads 1 h; SDS-PAGE, Coomassie, excised bands analysed by MS/MS; only the target purified

Sequences of proteins named here, by UniProt entry; tags and fusion partners are left off. Residues count along the entry.
UniProt P28799, residues 18-593: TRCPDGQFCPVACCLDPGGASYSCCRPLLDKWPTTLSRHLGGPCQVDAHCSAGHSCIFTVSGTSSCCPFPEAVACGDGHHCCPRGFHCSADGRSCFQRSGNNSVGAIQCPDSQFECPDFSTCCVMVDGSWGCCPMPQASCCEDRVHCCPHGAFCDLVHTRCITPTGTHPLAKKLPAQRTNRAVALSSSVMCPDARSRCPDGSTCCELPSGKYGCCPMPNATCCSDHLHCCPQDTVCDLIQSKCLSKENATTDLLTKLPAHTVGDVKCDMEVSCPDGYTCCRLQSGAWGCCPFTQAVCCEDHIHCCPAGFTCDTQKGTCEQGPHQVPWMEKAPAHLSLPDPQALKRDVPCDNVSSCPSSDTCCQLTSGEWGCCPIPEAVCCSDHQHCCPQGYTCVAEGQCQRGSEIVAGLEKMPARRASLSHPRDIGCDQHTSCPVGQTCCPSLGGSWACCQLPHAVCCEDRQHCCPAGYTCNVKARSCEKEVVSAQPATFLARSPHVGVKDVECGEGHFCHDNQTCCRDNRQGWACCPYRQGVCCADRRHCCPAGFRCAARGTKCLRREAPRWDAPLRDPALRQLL
UniProt Q16643: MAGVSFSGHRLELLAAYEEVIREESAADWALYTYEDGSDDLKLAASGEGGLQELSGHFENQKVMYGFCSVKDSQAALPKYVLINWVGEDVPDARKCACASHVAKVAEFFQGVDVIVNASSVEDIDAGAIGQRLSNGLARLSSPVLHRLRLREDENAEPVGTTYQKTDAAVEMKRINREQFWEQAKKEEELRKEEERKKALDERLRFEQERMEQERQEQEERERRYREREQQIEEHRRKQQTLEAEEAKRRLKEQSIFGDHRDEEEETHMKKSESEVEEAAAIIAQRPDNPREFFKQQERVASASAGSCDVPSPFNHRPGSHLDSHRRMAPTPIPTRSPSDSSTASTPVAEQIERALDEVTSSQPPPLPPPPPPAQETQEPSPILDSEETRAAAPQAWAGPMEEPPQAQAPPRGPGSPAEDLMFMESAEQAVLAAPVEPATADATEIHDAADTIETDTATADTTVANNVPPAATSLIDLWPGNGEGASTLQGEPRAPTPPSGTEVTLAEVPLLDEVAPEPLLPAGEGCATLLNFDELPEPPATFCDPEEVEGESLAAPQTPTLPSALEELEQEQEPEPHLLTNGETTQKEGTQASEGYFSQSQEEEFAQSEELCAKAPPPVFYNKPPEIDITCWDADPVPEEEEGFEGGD

“drebrin (developmentally regulated brain protein) (from UniProt Q16643 1-649)” was tested, and the binding was “binds”.

Source: publication PMC4484422
